Results as given in patent US20180133288A1 (ILDONG PHARM, published 2018).
No constants are given. Whether binding was seen depends on the method and setting. Some entries that bind do so weakly or less than the wild type. Tags and fused reporters may be left off the sequences shown.

Amino acid sequences for entries named in this document (tags omitted). Residues count along the entry.
UniProt O14786, residues 273-586: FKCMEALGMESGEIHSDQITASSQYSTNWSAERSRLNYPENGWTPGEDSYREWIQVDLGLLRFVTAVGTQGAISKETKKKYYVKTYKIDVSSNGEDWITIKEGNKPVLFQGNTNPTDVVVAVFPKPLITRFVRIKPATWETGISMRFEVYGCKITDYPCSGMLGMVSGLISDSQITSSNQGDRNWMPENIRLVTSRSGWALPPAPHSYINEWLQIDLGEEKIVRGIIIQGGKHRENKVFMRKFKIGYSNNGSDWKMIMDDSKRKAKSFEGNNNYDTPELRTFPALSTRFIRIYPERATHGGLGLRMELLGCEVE

How the values were obtained:
neuropilin 1 receptor [1] = molecular target: T1, neuropilin 1 receptor (UniProt O14786 273-586, limits assumed); assay: SPR (Biacore 2000), neuropilin 1 domain fixed on chip
T1 construct: The construct is not defined; also called NRP1; NRP 1

neuropilin 1 receptor [2] = molecular target: T1, neuropilin 1 receptor; assay: SPR (Biacore 2000), neuropilin 1 fixed on CM5 chip

B1: Fc-TPP#5 (TPP#5-fused Fc) (Fc fusion, not shown: a dimerising Fc or GST; small tags and cut ends)
chain: HTPGNSKPTRTPRR
In the case of B1, the binding (neuropilin 1 receptor [1]) is reported as “binds” and the binding (neuropilin 1 receptor [2]) is reported as “binds”.
